Measurements published in PubChem BioAssay AID2417 (National Center for Advancing Translational Sciences (NCATS), 2010).
Screen size: about 140,000 compounds; about 4,300 (3.1%) were called active. Inconclusive results, whose numbers are uncertain, are shown with a selection of clear calls.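 Rule for the calls: active = readout at or below -70, meaning at least 70% loss of cells showing the perinucleolar compartment, a nuclear body marking cancer cells; inconclusive = readout between -30 and a set limit; inactive = the rest.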

experiment: High Content Assay for Compounds that inhibit the Assembly of the Perinucleolar Compartment; conditions: PC3M PTB-GFP, PNC prevalence imaging, 16 h; at 10 µM; stronger effect = lower value;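 note: plate controls were DMSO wells for no effect and camptothecin positive control wells for full effect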
Method in brief: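 PC3M cells stably expressing PTB-GFP, 750–1000 cells/well, treated 16 h at 37 °C with compound (23 nl of library stock), in duplicate. After paraformaldehyde fixation and Hoechst stain, imaged at 20x; PNC prevalence scored by image analysis.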

| Structure (SMILES) | activity change (PNC), negative = inhibition |
| --- | --- |
| Cn1nc(C(=O)Nc2nc3ccccc3[nH]2)c2ccccc2c1=O | inconclusive: -32% |
| COc1ccc(CC(=O)NCc2nnc(SCCOc3ccccc3)n2C)cc1 | inconclusive: -75% |
| Cc1ccc(S(=O)(=O)Cc2ccc(C(=O)N3CCCC3)o2)cc1 | active: -86.6% |
| Cc1ccc(N(C)C(=O)N2CCN(c3ccccn3)CC2)cc1 | inconclusive: -41.6% |
| O=C(CN1CCN(S(=O)(=O)c2ccc(Cl)cc2)CC1)Nc1ccc(N2CCOCC2)cc1 | inactive: 25% |
| O=C(COC(=O)CCc1nc2ccccc2n1-c1ccccc1)Nc1cccc(Cl)c1 | inconclusive: -32.8% |
| CCC(C)NC(=O)CSc1nc2ccccc2c(=O)n1Cc1ccc(OC)cc1 (stereo unspecified) | inconclusive: -33.2% |
| O=C(NNC(=O)c1ccc2c(c1)OCO2)NC12CC3CC(CC(C3)C1)C2 | inconclusive: -44% |
| Cc1ccc(S(=O)(=O)N(Cc2cc3cccc(C)c3[nH]c2=O)c2ccccc2)cc1 | inconclusive: -40.7% |
| CCOC(=O)c1c(Nc2ccccc2N)cc(C)nc1C | active: -107% |
| O=C(COc1ccccc1CNCc1ccccc1)Nc1ccccc1 | inactive: 0.246% |
| Cc1cnn(C(=S)NCc2ccco2)c1 | inconclusive: -45.6% |
| Cc1nc2ccccc2c2oc(C(=O)NCc3ccccn3)cc12 | inconclusive: -65.2% |
| Cc1ccc(NC(=O)CSc2nnc(CN3CCOCC3)n2-c2ccccc2)cc1 | inconclusive: -47.9% |
| Cc1ccc(OCC(=O)N2CCCCCC2)c(C)c1 | inconclusive: -50.7% |
| CCN(CC)c1ccc2oc(=O)c(C)nc2c1 | inconclusive: -62.3% |
| CCC1S/C(=N/C(=O)NC2CCCCC2)NC1=O (stereo unspecified) | inactive: -5.32% |
| CCCC1C(=O)N(c2ccccc2)C1c1ccccc1 (stereo unspecified) | inconclusive: -39% |
| CC1CCCC(C)N1C(=O)Cn1c(=O)sc2ccccc21 (stereo unspecified) | inactive: -28% |
| Cc1ccc(Cn2ccc(NC(=O)c3cc(-c4ccccc4)on3)n2)cc1 | inactive: 11.4% |
| C[n+]1cccc(CNC(=O)/C=N/O)c1 | inactive: -9.2% |
| Cc1ccc(NC(=O)CNC(=O)c2cccs2)cc1S(=O)(=O)Nc1ccc(Cl)cc1 | active: -113% |
| O=C(NCCO)/C(=C/c1ccc(Br)cc1)NC(=O)c1cccs1 | inconclusive: -72.1% |

Compounds listed so far that contain an aryl thioether with sulfur outside any ring (three):

| Structure (SMILES) | activity change (PNC), negative = inhibition |
| --- | --- |
| COc1ccc(CC(=O)NCc2nnc(SCCOc3ccccc3)n2C)cc1 | inconclusive: -75% |
| CCC(C)NC(=O)CSc1nc2ccccc2c(=O)n1Cc1ccc(OC)cc1 (stereo unspecified) | inconclusive: -33.2% |
| Cc1ccc(NC(=O)CSc2nnc(CN3CCOCC3)n2-c2ccccc2)cc1 | inconclusive: -47.9% |

Continued:

| Structure (SMILES) | activity change (PNC), negative = inhibition |
| --- | --- |
| Cc1ccc(-n2c(N)c(C(=O)N3CCOCC3)sc2=S)c(C)c1 | inconclusive: -31.7% |
| CC(C)Cn1c(NCCN(C)C)nc2c1c(=O)[nH]c(=O)n2C | inconclusive: -40.3% |
| COc1ccc(N2C(=O)C(Cl)=C(Nc3ccccc3OC)C2=O)cc1 | inconclusive: -35% |
| CCn1c(=O)c2c3c(sc2n2c(=S)[nH]nc12)CCC3 | inactive: 5.98% |
| Cc1[nH]n(-c2ccccc2)c(=O)c1C=Nc1cccc2cccnc12 | inactive: -14.4% |
| CCN(CC)S(=O)(=O)c1ccc(OC)c(NC(=O)c2cc([N+](=O)[O-])ccc2Cl)c1 | inconclusive: -39.1% |
| Cc1ccc(CNS(=O)(=O)/C=C/c2ccc3c(c2)OCO3)cc1 | inconclusive: -37.4% |
| COc1cc(Br)c(CC(=O)O)cc1OC | inactive: 22.5% |
| CCOC(=O)N(CC)OC(=O)Nc1ccc(Cl)cc1 | inactive: -7.57% |
| O=C1[C@@H]2[C@@H]3C[C@@H]([C@H]4ON=C(c5ccc(OCc6ccccc6)cc5)[C@@H]34)[C@@H]2C(=O)N1c1ccc2c(c1)OCO2 | inconclusive: -33% |
| O=C(O)CSc1nnc(Cn2nnc3ccccc32)n1CCc1ccccc1 | inconclusive: -68.3% |
| CC1=C(C(=O)N(C)C)C(c2cccc(Cl)c2)NC(=O)N1 (stereo unspecified) | inactive: 34.9% |
| Cc1nc2nc(-c3ccccc3)[nH]n2c(=O)c1Cc1ccccc1 | inconclusive: -72.1% |
| NS(=O)(=O)c1ccc(CCNC(=O)CN2CCN(c3ccccc3O)CC2)cc1 | inconclusive: -47.4% |
| CCc1cc(=O)oc2c(CN3CCCC3)c(O)c(Cl)cc12 | inconclusive: -37.2% |
| O=S(=O)(NCc1ccccc1)c1ccc(S(=O)(=O)N(Cc2ccccn2)Cc2ccco2)cc1 | inactive: 2% |
| CCOc1ccc(C/C(N)=N/n2cnnc2)cc1 | inconclusive: -57.9% |
| CCc1ccc(NC(=O)CSc2nnc(Cc3cccn3C)n2-c2ccc(OC)cc2)cc1 | inactive: 6.02% |
| COc1cc(NS(=O)(=O)c2ccc(NC(C)=O)cc2)ncn1 | inactive: -0.571% |
| O=C(NC1CCCCC1)c1cccc(S(=O)(=O)N2CCOCC2)c1 | inconclusive: -44.7% |
| O=C(NC(NC(=S)Nc1c(Cl)cccc1Cl)C(Cl)(Cl)Cl)c1cccc([N+](=O)[O-])c1 (stereo unspecified) | inconclusive: -30.4% |
| O=C(OCC1OC2C(Oc3nc(=O)ccn32)C1O)c1ccccc1 (stereo unspecified) | inconclusive: -59% |
| CCCOc1ccc2oc(=O)c3c(c2c1)CCCN3C(=O)CN1CCN(c2ncccn2)CC1 | inconclusive: -56.6% |
